From publication PMC11944851, “Computationally Guided Design, Synthesis, and Evaluation of Novel Non-Hydroxamic Histone Deacetylase Inhibitors, Based on N-Trifluoroacetamide as a Zinc-Binding Group, Against Breast Cancer” (Pharmaceuticals, 2025)
Read-outs that look alike come from different tables or passages of the source.

How the values were obtained:
Format in all cases: cell-based
MCF-7 cells = assay: MTT cell viability, MCF-7; details: read-out: Cytotoxic Activity IC50 MCF-7
Experimental: (§1) The BC cell lines MCF-7 and MDA-MB-231 were cultured in high-glucose DMEM medium with phenol red, supplemented with 7% and 10% fetal bovine serum (Gibco, Waltham, MA, USA), respectively, 1% Penicillin/Streptomycin (10,000 U/mL, Gibco, Waltham, MA, USA), and 1% non-essential amino acids (Gibco, Waltham, MA, USA). Cell cultures were maintained in a temperature-controlled incubator at 37 °C and 5% CO2 atmosphere. For the 72 h assays with MDA-MB-231, 1.8 x 10³ cells/well were seeded in 100 µL of medium.
(§2) The 3-(4,5-dimethylthiazol-2-yl)-2,5-diphenyl tetrazolium bromide assay was used to evaluate the effect of the designed compounds on cell viability. These compounds were initially dissolved in DMSO (dimethyl sulfoxide) as stock solutions at 150 mM. Cells were seeded in 96-well plates (NEST Biotechnology Co., Wuxi, China) at different densities, depending on the cell line used and the incubation time with the treatments, and left in 100 µL of the corresponding culture medium for 24 h to allow for adhesion. […] The optical density of the wells was measured at 550 nm using an ELISA reader (MultiSkan, Thermo Scientific, Waltham, MA, USA). Finally, cell viability was expressed as a percentage relative to the negative control (untreated and 0.46% DMSO).
(§3) Cytotoxicity data were analyzed using one-way ANOVA to evaluate differences between the treated groups and the negative control (DMSO). […]

MDA-MB-231 cells = assay: MTT cell viability, MDA-MB-231; details: Homo sapiens, MDA-MB-231, 72 h, read-out: Cytotoxic Activity IC50 MDA-MB-231
Experimental: as §1, §2, §3

[1] = MTT cell viability, non-tumorigenic MCF-10A; details: human, MCF-10A non-cancerous mammary epithelial cells, non-tumorigenic breast cells, read-out: Cytotoxic Activity IC50 MCF-10A
Description: (§4) Since the use of these compounds is promising for solid tumors and non-malignant diseases, structural modifications that improve the pharmacokinetic profile, widen the therapeutic window, and reduce the toxic risk potential are desirable.
(§5) For the culture of normal breast epithelial cells MCF-10A, DMEM-F12 medium without phenol red was used, supplemented with 5% fetal bovine serum (Gibco, Waltham, MA, USA), 1% Penicillin/Streptomycin (10,000 U/mL, Gibco, Waltham, MA, USA), 1% non-essential amino acids (Gibco, Waltham, MA, USA), 0.33% hydrocortisone, 0.2% insulin (100 U/mL), and 0.002% EGF (1 µg/µL). For the assays with MCF-10A cells, 2.5 × 10^3 cells/well were seeded in 100 µL of medium.
as §2, with “mM.” for “mM. Cells were seeded in 96-well plates (NEST Biotechnology Co., Wuxi, China) at different densities, depending on the cell line used and the incubation time with the treatments, and left in 100 µL of the corresponding culture medium for 24 h to allow for adhesion.”
as §3

MCF-10A cells = assay: MTT cell viability, non-tumorigenic MCF-10A; details: 72 h, non-tumorigenic breast cells, read-out: Cytotoxic Activity IC50 MCF-10A
Description: as §4, §5
as §2, with “mM.” for “mM. Cells were seeded in 96-well plates (NEST Biotechnology Co., Wuxi, China) at different densities, depending on the cell line used and the incubation time with the treatments, and left in 100 µL of the corresponding culture medium for 24 h to allow for adhesion.”
as §3

O=C(CCCCCCC(=O)Nc1ccccc1)NO [SAHA, suberoylanilide hydroxamic acid, reference compound]
IC50 (MCF-7 cells; 72 h): 4.23 ± 1.59 µM
IC50 (MCF-7 cells; Homo sapiens, MCF7, 72 h): 4.2 µM
IC50 (MDA-MB-231 cells): 3.5 ± 0.56 µM
IC50 at 72 h [1]: 3 µM
IC50 (MCF-10A cells): 3.02 ± 0.32 µM
